The supplement of paper PMC10735217
This is one part of the list. Single values are uncertain here, since repeats match poorly.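 In a drug-repurposing library screen, luminescence reads luciferase driven by eight TEAD-binding elements, stably integrated into human kidney-derived cells. Compounds scoring over five robust Z scores above the plate mean are called hits.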

Tested on: HEK293A TEAD-LUC reporter
Test: TEAD-luciferase reporter activity (YAP activation), robust Z score vs plate; higher = stronger YAP/TEAD activation
Conditions: 24 h

| Structure (SMILES) | TEAD-luciferase reporter activity (compound concentration: 200 nM) | TEAD-luciferase reporter activity (compound concentration: 2 uM) | TEAD-luciferase reporter activity (compound concentration: 10 uM) |
| --- | --- | --- | --- |
| CC(C)=CCC[C@]1(C)C=Cc2c(O)c3c(c(CC=C(C)C)c2O1)O[C@]12C(=C[C@@H]4C[C@H]1C(C)(C)O[C@@]2(C/C=C(/C)C(=O)O)C4=O)C3=O [Gambogic acid] | inactive: -0.632 | inactive: 0.95 | active: 9.61 |
| CNCC(=O)c1ccc(O)c(O)c1 | inactive: -0.765 | inactive: -0.487 | inactive: -0.848 |
| N=C(NCCC[C@H](N)C(=O)O)N[N+](=O)[O-] [NG-nitro-arginine] | inactive: -0.561 |  | inactive: 0.0351 |
| CCCCN1C(=O)C(=C/C=C/C=C2\Oc3ccccc3N2CCCS(=O)(=O)O)C(=O)N(CCCC)C1=S | inactive: -2.87 | inactive: -1.55 | inactive: -0.0429 |
| O=C1Nc2ccccc2C(C(=O)NC2CN3CCC2CC3)c2ccccc21 (stereo not drawn) | inactive: -1.41 | inactive: -1.12 | inactive: 1.67 |
| C=C1CC[C@@]2(O)C3Cc4ccc(O)c5c4[C@@]2(CCN3CC2CC2)[C@H]1O5 [nalmefene] | inactive: 2.17 | inactive: -1.02 | inactive: -0.239 |
| CC1(C)CN[Se]c2ccccc21 | inactive: 0.563 | inactive: -0.795 | inactive: -0.961 |
| CN(C)C(=O)c1nc(CNC(=O)CN)n(-c2ccc(Cl)cc2C(=O)c2ccccc2Cl)n1 | inactive: -0.721 | inactive: -0.366 | inactive: -0.877 |
| O=C(C1CCCN1C(=O)Cc1ccc(F)cc1)N1CCC(N2Cc3ccccc3C2=O)CC1 (stereo not drawn) | inactive: -0.994 |  | inactive: 4.1 |
| COc1ccc2c(c[n+](C)c3c4cc5c(cc4ccc23)OCO5)c1OC [chelerythrine] | inactive: 2.35 | inactive: 4.41 | active: 6.84 |
| CN/C(=N/S(=O)(=O)c1ccc(Cl)cc1)N1CC(c2ccccc2)C(c2ccc(Cl)cc2)=N1 (stereo not drawn) [Ibipinabant] | inactive: 0.257 | inactive: -0.896 | inactive: 0.862 |
| CC[C@H]1CC2CN3CCc4c([nH]c5ccccc45)[C@](C(=O)OC)(C2)C13 [Coronaridine] | inactive: -1.62 | inactive: 2.34 | inactive: 1.27 |
| C[N+]1(CC2CC2)CC[C@]23c4c5ccc(O)c4O[C@H]2C(=O)CC[C@@]3(O)[C@H]1C5 (stereo partly drawn) [Methylnaltrexone (Bromide)] | inactive: -0.888 | inactive: 0.000251 | inactive: -0.884 |
| Oc1c(Br)cc(Br)cc1Br | inactive: 1.66 | inactive: 0.221 | inactive: -1.08 |
| COc1cc(N)c(Cl)cc1C(=O)NC1CN2CCC1CC2 (stereo not drawn) [Zacopride] | inactive: -0.818 | inactive: 0.472 | inactive: 0.148 |

A different layout for some results above:
Structure (SMILES)	TEAD-luciferase reporter activity (compound concentration: 200 nM)	TEAD-luciferase reporter activity (compound concentration: 2 uM)	TEAD-luciferase reporter activity (compound concentration: 10 uM)
C=C1CC[C@@]2(O)C3Cc4ccc(O)c5c4[C@@]2(CCN3CC2CC2)[C@H]1O5 [nalmefene]	inactive: 2.17	inactive: -1.02	inactive: -0.239
CC1(C)CN[Se]c2ccccc21	inactive: 0.563	inactive: -0.795	inactive: -0.961
